Measured data: PubChem BioAssay AID652259 (Drosophila RNAi Screening Center, 2013)
Aim: 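Identify new Wingless signalling regulators in fly cells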 (primary screen). Cells: Drosophila clone 8 imaginal disc epithelial cells. Reagents: long dsRNA against Drosophila genes. Treatment: pathway stimulated by co-transfected Wingless expression plasmid. Detection: 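Firefly luciferase from a tcf-site Wingless reporter, measured alongside co-transfected Renilla luciferase that tracks transfection; pathway stimulated by a Wingless plasmid; the firefly-to-Renilla ratio is not deposited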. Direction: firefly reporter light: higher = more Wg reporter light, before normalisation; Renilla control light: higher = more transfected or surviving cells. Active means: 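a knock-down is a candidate when at least two out of four statistical tests show it departing from its plate mean; one test alone signals a weak candidate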. Calls: active = candidate regulator (raises or lowers reporter); inactive = not a candidate.
The deposit covers about 22,000 reagents; this is an unselected part of those with a known target gene and a result. In the full data, 233 (1.1%) got an active call. 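Light values are raw, unnormalised plate reads; the ratio scores behind the reporter calls were not deposited.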 A plus sign joins genes that one reagent is predicted to hit. Not given: the amount of reagent, the time to read-out, the dose of the treatment.

gene,DRSC id,"reporter change call, replicate 1","firefly reporter light, replicate 1","firefly reporter light, replicate 2","Renilla control light, replicate 1","Renilla control light, replicate 2",call
lncRNA:CR32661 + lncRNA:CR43157,DRSC19794,,20192,,10356,,inactive
CG6126,DRSC15971,,3431,6931,1511,2712,inactive
CG3224,DRSC18295,,26278,,10949,,inactive
140up,DRSC12634,,5831,,2070,,inactive
CG11113,DRSC06039,,2584,6692,608,2418,inactive
CG18765,DRSC15392,,22429,,4950,,inactive
Arl6IP1,DRSC14231,,14064,,2932,,inactive
Tdc1,DRSC04942,,20640,,11188,,inactive
CG8272,DRSC07134,,12624,,3780,,inactive
CG30479,DRSC06735,,4887,,2762,,inactive
BckdhB,DRSC21183,,13987,,8396,,inactive
Pus7,DRSC10703,,1885,5508,1210,2439,inactive
CG31706,DRSC22704,,4.28e5,4.49e5,1.89e5,1.43e5,inactive
RpL7,DRSC03417,Wg reporter activity raised,4880,6227,707,2160,inactive
gem,DRSC06093,,19238,,2983,,inactive
gem,DRSC06847,,2666,7475,656,2043,inactive
vig2,DRSC14402,,2704,6688,1133,1704,inactive
Mpi,DRSC16417,,11896,,3776,,inactive
BNIP3,DRSC11761,,11805,,3338,,inactive
Sse,DRSC09746,,2684,,424,,inactive
GluRIIA,DRSC03334,,2421,6976,923,2837,inactive
CG7139,DRSC11611,,7261,,2854,,inactive
COX6AL2 + Ir75d,DRSC10081,,9565,,2514,,inactive
CG8202,DRSC16396,,17873,,5794,,inactive
EMC10,DRSC11850,,16208,,6009,,inactive
CG4615,DRSC17491,,3704,,677,,inactive
CG4615,DRSC18376,,2778,5127,800,1744,inactive
Ser,DRSC16856,,8181,,2802,,inactive
Wwox,DRSC03030,,16740,6.58e5,6887,3.10e5,inactive
Wwox,DRSC22872,,1.00e6,8.87e5,5.17e5,84,inactive
